Assay results reported in patent US20190105264A1, “NON-INVASIVE OCULAR DRUG DELIVERY DEVICES” (Aciont Inc., priority 2017, published 2019).

Conditions: most tissues, except lens and vitreous samples in a few cases

## C[C@@H]1C[C@H]2[C@@H]3CCC4=CC(=O)C=C[C@]4(C)[C@@]3(F)[C@@H](O)C[C@]2(C)[C@@]1(O)C(=O)COP(=O)(O)O [DSP, dexamethasone sodium phosphate]
  Ocular tissue concentrations of DSP: higher than 1 μg/g
